Assay results reported in patent US10525115B2 (Immatics Biotechnologies GmbH, priority 2014, dated 2020).

How the values were obtained:
primary AML samples = assay: HLA class I ligandome analysis (W6/32 immunoaffinity purification, LC-MS/MS) of primary AML samples; set-up: species or system human; conditions: AML patients (n=15)
[1] = system: cancer tissues in comparison to non-cancerous tissues and organs; assay: Presentation profile / over-presentation by label-free LC-MS (XPRESIDENT), tumor versus normal tissues, other proliferative diseases; set-up: species or system human; conditions: other proliferative diseases / organs (other than AML) that over- or exclusively present the peptide; Table 5
[2] = HLA class I ligandome, count for the HLA ligand (LiTAP) or, on protein lines, for the source protein (LiTAA)

Substance | Number of positive AMLs (primary AML samples; HLA ligand (LiTAP)) | Proliferative disease and location thereof [1] | Number of positive AMLs (primary AML samples; [2])
261 (DPMAPGVQGSLL; listed as Homo sapiens) [compound 261] | 1 | lung, non-small cell lung carcinoma, uterine cervix, squamous cell carcinoma | –
34 (KEALLRDTI; listed as Homo sapiens) [compound 34] | – | colon or rectum, lymph node, non-Hodgkin's; lymphoma | 1
61 (MDKLVVEY; listed as Homo sapiens) [compound 61] | – | stomach, adenocarcinoma, pancreas, adenocarcinoma | 2
235 (SEELQRNISL; listed as Homo sapiens) [compound 235] | – | kidney, clear cell renal cell carcinoma, ovary, adenocarcinoma | 1
20 (IEDKAQILL; listed as Homo sapiens) [compound 20] | – | malignant fibrous histiocytoma | 3
189 (SEIAESHRF; listed as Homo sapiens) [compound 189] | – | liver, hepatocellular carcinoma, cancer, liver, hepatocellular carcinoma | 2
152 (YELDLREPAL; listed as Homo sapiens) [compound 152] | – | lung, non-small cell lung carcinoma, lung, adenocarcinoma | 2
14 (EVAEHVQYM; listed as Homo sapiens) [compound 14] | – | colon or rectum, prostate, benign nodular; hyperplasia | 3
312 (TQPHPNTVY; listed as Homo sapiens) [compound 312] | 2 | stomach, metastatic, lung, neuroendocrine carcinoma | –
227 (APNYRLKSL; listed as Homo sapiens) [compound 227] | – | stomach, adenocarcinoma, metastatic renal cell carcinoma | 1
130 (GQTGSGKTF; listed as Homo sapiens) [compound 130] | – | stomach, adenocarcinoma, rectum, adenocarcinoma | 1
208 (EHLRKLEAE; listed as Homo sapiens) [compound 208] | – | colon or rectum, rectum, adenocarcinoma | 1
203 (VALVHPDL; listed as Homo sapiens) [compound 203] | – | stomach, adenocarcinoma, colon, adenocarcinoma | 1
299 (KYPLNLYLL; listed as Homo sapiens) [compound 299] | 2 | kidney, clear cell renal cell carcinoma, lipoma | –
2 (FTAEFSSRY; listed as Homo sapiens) [compound 2] | – | colon or rectum, lung, small cell carcinoma | 2
205 (KIAKQIVQK; listed as Homo sapiens) [compound 205] | – | lung, non-small cell lung carcinoma, lung, neuroendocrine carcinoma | 1
239 (GVPIMLAY; listed as Homo sapiens) [compound 239] | – | brain, glioblastoma, uterine cervix, squamous cell carcinoma | 2
116 (FLYPFLSHL; listed as Homo sapiens) [compound 116] | – | stomach, metastatic, bone, non-ossifying fibroma | 1
319 (FLRDPAEAL; listed as Homo sapiens) [compound 319] | 1 | breast, carcinoma | –
4 (REQDEAYRL; listed as Homo sapiens) [compound 4] | – | colon or rectum, lung, small cell carcinoma | 1
120 (GEAVKVLSI; listed as Homo sapiens) [compound 120] | – | liver, hepatocellular carcinoma, kidney, renal cell carcinoma | 1
138 (SVVDLINHY; listed as Homo sapiens) [compound 138] | – | brain, glioblastoma, bone, non-ossifying fibroma | 3
159 (ETLERLQEL; listed as Homo sapiens) [compound 159] | – | liver, hepatocellular carcinoma, cancer, parotid; gland, pleomorphic adenoma | 1
272 (DEAVLFVQV; listed as Homo sapiens) [compound 272] | 3 | pancreas, adenocarcinoma, ovary, mucinous; cystadenocarcinoma | –
280 (SLVDQSAAL; listed as Homo sapiens) [compound 280] | 1 | colon or rectum, fibromatosis | –
320 (GYGSQGYKY; listed as Homo sapiens) [compound 320] | 1 | breast, carcinoma | –

Substance | Number of positive AMLs (primary AML samples; HLA ligand (LiTAP)) | Proliferative disease and location thereof [1] | Number of positive AMLs (primary AML samples; [2])
105 (AEIEDIRVL; listed as Homo sapiens) [compound 105] | – | stomach, metastatic, duodenum, adenocarcinoma | 1
78 (FLTILPEEL; listed as Homo sapiens) [compound 78] | – | pancreas, adenocarcinoma, lung, adenocarcinoma | 1
72 (THLVDQDTTSF; listed as Homo sapiens) [compound 72] | – | kidney, clear cell renal cell carcinoma, synovial; sarcoma | 1
302 (RDSEELLQI; listed as Homo sapiens) [compound 302] | 1 | stomach, adenocarcinoma, rectum, adenocarcinoma | –
108 (DTMGPSQHVY; listed as Homo sapiens) [compound 108] | – | lung, non-small cell lung carcinoma, spleen, extramedullary hematopoiesis | 1
148 (TLKSGDGITF; listed as Homo sapiens) [compound 148] | – | kidney, clear cell renal cell carcinoma, stomach, gastrointestinal stromal tumor (GIST) | 1
102 (EAYVQKMV; listed as Homo sapiens) [compound 102] | – | stomach, adenocarcinoma, liver, carcinoid tumor, metastatic | 1
75 (SVSDIIRLR; listed as Homo sapiens) [compound 75] | – | pancreas, adenocarcinoma, lymph node, Hodgkin's disease | 1
29 (DEFITVHSM; listed as Homo sapiens) [compound 29] | – | stomach, skin, basal cell carcinoma | 1
143 (YQRETPQV; listed as Homo sapiens) [compound 143] | – | liver, hepatocellular carcinoma, fibromatosis | 1
59 (HRIYVPLML; listed as Homo sapiens) [compound 59] | – | stomach, diffuse subtype adenocarcinoma, pancreas, adenocarcinoma | 1
289 (DIYGGDYERF; listed as Homo sapiens) [compound 289] | 1 | colon or rectum, adrenal gland, adrenal cortical carcinoma | –
316 (AEDIPSLKL; listed as Homo sapiens) [compound 316] | 2 | breast, carcinoma | –
245 (ETVRTLNNLY; listed as Homo sapiens) [compound 245] | 3 | brain, glioblastoma, omentum, leiomyosarcoma, metastatic | –
133 (FAQIISVALI; listed as Homo sapiens) [compound 133] | – | stomach, adenocarcinoma, parathyroid gland, adenoma | 1
84 (RPEEGKESL; listed as Homo sapiens) [compound 84] | – | lung, non-small cell lung carcinoma, spleen, chronic myeloid leukemia | 1
315 (KILDLETEL; listed as Homo sapiens) [compound 315] | 1 | stomach, metastatic, breast, carcinoma | –
162 (GEFGKPYFI; listed as Homo sapiens) [compound 162] | – | colon or rectum, testis, seminoma | 1
207 (APAGARGGPA; listed as Homo sapiens) [compound 207] | – | colon or rectum, rectum, adenocarcinoma | 1
260 (DAIDGKQAR; listed as Homo sapiens) [compound 260] | 2 | brain, glioblastoma, liver, focal nodular; hyperplasia | –
273 (EVAKFLSFY; listed as Homo sapiens) [compound 273] | 2 | kidney, clear cell renal cell carcinoma, kidney, angiomyolipoma | –
77 (GEKSESISV; listed as Homo sapiens) [compound 77] | – | stomach, adenocarcinoma, white blood cells, chronic lymphocytic leukemia | 1
271 (SEAQEGLQKF; listed as Homo sapiens) [compound 271] | 1 | kidney, clear cell renal cell carcinoma, kidney, transitional cell carcinoma | –
145 (IPYPRPIHL; listed as Homo sapiens) [compound 145] | – | liver, focal nodular hyperplasia | 2
209 (RFIPELINF; listed as Homo sapiens) [compound 209] | – | colon or rectum, rectum, adenocarcinoma | 1
